Reference: the supplement of paper PMC3334620
The full ranking holds about 33,000 sequences; the median of “E-score (-0.5 to 0.5)” is about -0.016, and the highest 2% start at about 0.3. Some of the results follow.

Molecular target: T1, Yer184c (UniProt P39961)
T1 sequence: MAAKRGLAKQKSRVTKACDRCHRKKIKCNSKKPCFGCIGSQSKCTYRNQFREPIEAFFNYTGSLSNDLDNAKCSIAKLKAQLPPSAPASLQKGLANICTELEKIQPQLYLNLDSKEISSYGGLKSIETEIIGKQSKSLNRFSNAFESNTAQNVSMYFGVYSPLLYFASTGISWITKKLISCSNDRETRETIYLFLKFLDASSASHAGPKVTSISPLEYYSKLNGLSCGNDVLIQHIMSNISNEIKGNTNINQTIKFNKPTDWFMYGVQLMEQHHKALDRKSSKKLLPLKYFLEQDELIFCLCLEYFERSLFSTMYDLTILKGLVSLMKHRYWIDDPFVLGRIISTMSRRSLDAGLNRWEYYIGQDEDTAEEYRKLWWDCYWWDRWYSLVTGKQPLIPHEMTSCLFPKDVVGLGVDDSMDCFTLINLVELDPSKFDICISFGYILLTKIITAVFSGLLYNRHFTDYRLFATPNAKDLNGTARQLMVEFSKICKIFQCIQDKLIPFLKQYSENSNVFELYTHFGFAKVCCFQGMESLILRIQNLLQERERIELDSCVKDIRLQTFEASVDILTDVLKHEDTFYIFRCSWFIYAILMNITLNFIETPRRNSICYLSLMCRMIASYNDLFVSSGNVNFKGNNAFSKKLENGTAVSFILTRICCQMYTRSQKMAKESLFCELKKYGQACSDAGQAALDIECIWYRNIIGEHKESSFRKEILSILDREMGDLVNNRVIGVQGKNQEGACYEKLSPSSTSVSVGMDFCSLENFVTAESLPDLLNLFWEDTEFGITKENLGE
Assay: PBM E-score (8-mer binding enrichment) (E-score (-0.5 to 0.5)); higher = stronger / more preferred TF binding
Conditions: protein concentration: 100 nM; construct: GST-full length
Summary of the method: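 Universal all-10-mer Agilent arrays, fresh or stripped once, were converted to double-stranded form by primer extension. GST-tagged yeast transcription factors from PURExpress in vitro transcription/translation, full-length or DNA-binding domain only, were applied at about 100-200 nM and detected with fluorescent anti-GST. After masliner normalisation, the Universal PBM Analysis Suite scored each ungapped eight-base word together with its reverse complement by E-score.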

| Sequence | PBM E-score |
| --- | --- |
| ATACAGGA | 0.0398 |
| AACGATCT | 0.0753 |
| ACCATCGG | -0.0785 |
| AGCGCACT | -0.276 |
| ACCGCGTA | -0.0653 |
| AGGACAGC | -0.199 |
| GACACCCC | -0.225 |
| CACTAACC | -0.081 |
| ACAAGTGA | -0.0538 |
| CGAAGTGA | -0.041 |
| GCGTACTA | -0.191 |
| ATGAGCAA | 0.0122 |
| AAGACGAT | -0.11 |
| AGCGCGCC | -0.0668 |
| AGGGACCA | -0.177 |
| GCTCCGCC | 0.126 |
| ACTGTTAG | -0.115 |
| AGTCTACC | -0.0597 |
| ACGTTCGG | 0.0284 |
| GCACGAGC | -0.168 |
| GCATAGAC | -0.0473 |
| AGAAACAT | 0.159 |

| Sequence | PBM E-score |
| --- | --- |
| AGGTTGCA | 0.013 |
| ATCCGAGG | 0.182 |
| CAGACAAG | -0.0643 |
| GATGGTTA | 0.0741 |
| AAATCGAA | -0.0711 |
| CCAGGAGG | -0.24 |
| CAGGCCAG | -0.154 |
| CAACAGAA | -0.0171 |
| ATTAGAAG | 0.0148 |
| AATCGATG | 0.161 |
| AAAGGTAC | 0.0559 |
| TCCCCCGA | -0.132 |
| ATACTGAG | 0.126 |
| CATGTCAC | -0.0529 |
| ATGCGAAG | -0.0567 |
| CCAAAATA | 0.177 |
| CTTTTCAA | 0.11 |
| GGAGCCCC | -0.315 |
| CAAAGAGC | 0.115 |
| ATTCAGCA | 0.0605 |
| CCTTGTGC | -0.266 |
| CGCCGAGC | 0.344 |

| Sequence | PBM E-score |
| --- | --- |
| CGTAGACA | -0.0945 |
| TGCCCCAA | -0.0927 |
| GAGGTTAC | -0.0142 |
| GAAAATAC | 0.227 |
| AAATCATG | 0.0112 |
| CCGTAAAG | 0.155 |
| GGCGCCCA | 0.0579 |
| CTGGTGGA | -0.206 |
| GGGGGAAA | -0.0917 |
| CTAAATGC | 0.0828 |
| AAAGGGAA | -0.0699 |
| AACGAATG | 0.105 |
| CAGTATAC | -0.0142 |
| CAAATACG | -0.00546 |
| CGGGGTTC | -0.103 |
| AGAAACCC | 0.121 |
| TAATGTAA | 0.17 |
| AGCAGCCA | -0.0945 |
| GACTTGAA | 0.00543 |
| CCCTGAAG | -0.213 |
| AGCCTCGA | -0.125 |
| GCTTACAA | 0.0356 |

For reference, part of the list above.

| Sequence | PBM E-score |
| --- | --- |
| TAATGTAA | 0.17 |
| AGCAGCCA | -0.0945 |
| GACTTGAA | 0.00543 |
| CCCTGAAG | -0.213 |
| AGCCTCGA | -0.125 |

Remaining list, next part.

| Sequence | PBM E-score |
| --- | --- |
| AAAGGGAT | -0.036 |
| AGAAAGCC | 0.0302 |
| ACCCGCGG | 0.351 |
| CTCTCCTC | -0.27 |
| CGTTCTAC | -0.083 |
| CAAGAAAA | 0.242 |
| TACCCGCA | 0.17 |
| CAATGGAG | -0.164 |
| AGTCACCG | -0.0615 |
| CGGTGGAC | -0.148 |
| GACATGGA | -0.0994 |
| CCTGGAGA | -0.035 |
| GATGTGAC | -0.0811 |
| CACTCGAG | 0.0738 |
| GATCGATC | -0.147 |
| CCTCCTCC | -0.146 |
| CCCTGGGA | -0.144 |
| CAACTACA | 0.051 |
| GCCAGCCA | -0.259 |
| ATGTACCA | 0.00915 |
